{"source": "PubChem BioAssay AID504444", "about": "(National Center for Advancing Translational Sciences (NCATS), 2011)", "note": "The whole screen tested about 360,000 compounds, of which about 7,500 (2.1%) were called active. Calls come from the whole dose curve; as a rule, active = well fitted inhibition curve with a large enough effect; inconclusive = small, poorly fitted or top-dose-only effect, or effect the other way; inactive = flat fitted curve, though single readings scatter. Inconclusive results, whose numbers are uncertain, are shown. Potencies beside an inconclusive call are fits to weak or partial responses and may not hold up. Potency is the fitted concentration of half-maximal effect.", "data": [{"assay": "Nrf2 qHTS screen for inhibitors; note: nearly all actives have a fitted effect of over 60% in size", "settings": "A549 ARE-Fluc reporter, luciferase luminescence, 18-24 h; series mostly up to 46 µM", "source_text": "NIH Molecular Libraries Probe Production Network [MLPCN]\nNIH Chemical Genomics Center [NCGC]\nAssay Provider: Shyam Biswal, Johns Hopkins University\nNrf2 is a transcription factor that maintains cellular redox homoestasis and protects cells from xenobiotics. Nrf2 binds to the antioxidant response element (ARE) to induce gene expression of a broad spectrum of genes that encode for antioxidants. […] Finding a small molecule that act as an inhibitor of Nrf2 function would represent a novel therapeutic target that could lead to improvement in survival of patients undergoing chemo- and/or radio- therapy.\nThis is the Nrf2 activity measured in the luminescent read.\n1. […]\nA concentration-response assay was performed with A549 ARE_Fluc cells which are suspended in 5% FBS OPTI-MEM. […] The plate is then incubated at 37deg C at 5% CO2 for 30 minutes before they are read on the ViewLux (Perkin Elmer) for a fluorescent read Ex=405(10)/Em=525(10) for a 3 second exposure, 2x binning, and high gain. […] Afterwards another ViewLux read is performed using the clear filter to get a luminescent read with the settings of 40 second exposure, 2x binning, and high gain. Cytotoxicity is assessed through the first fluorescent read and then biochemical activity against Nrf2 is measured in the luminescent read.", "values": [{"smiles": "CCc1nnc(NS(=O)(=O)c2ccc(N/C=C(\\C=O)c3nc4cc(Cl)ccc4o3)cc2)s1", "Potency": "inconclusive: 14.6 µM [activator, partial curve]"}, {"smiles": "CCCOc1ccc(C2C(C(=O)c3cc4ccccc4o3)=C(O)C(=O)N2c2cc(C)on2)cc1", "note": "(configuration not stated)", "Potency": "inconclusive: 18.4 µM [falling, single point]"}]}]}
